Laboratory results: the supplement of paper PMC10849652
Some of the results follow.

Chains of the proteins cited; added tags and fusions are not shown. Lines headed by an entry give the natural chain unless they say otherwise; changes in a name come on top.
UniProt Q53H80, whole entry, looked up: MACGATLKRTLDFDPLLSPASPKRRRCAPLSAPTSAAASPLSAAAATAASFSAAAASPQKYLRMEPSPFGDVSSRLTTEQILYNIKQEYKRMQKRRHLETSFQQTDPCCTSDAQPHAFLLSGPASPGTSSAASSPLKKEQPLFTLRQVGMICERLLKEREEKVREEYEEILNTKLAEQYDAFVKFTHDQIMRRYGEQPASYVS
UniProt Q9Y673: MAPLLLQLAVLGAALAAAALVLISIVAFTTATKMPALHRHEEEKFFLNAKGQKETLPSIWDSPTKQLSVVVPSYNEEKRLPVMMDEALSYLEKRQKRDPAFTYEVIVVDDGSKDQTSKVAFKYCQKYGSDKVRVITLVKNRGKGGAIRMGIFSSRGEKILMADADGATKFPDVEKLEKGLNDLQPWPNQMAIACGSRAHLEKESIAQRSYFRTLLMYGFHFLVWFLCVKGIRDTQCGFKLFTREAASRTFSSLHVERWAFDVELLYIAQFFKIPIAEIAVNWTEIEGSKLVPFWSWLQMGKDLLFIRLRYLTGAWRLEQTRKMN
UniProt O43865, whole entry, looked up: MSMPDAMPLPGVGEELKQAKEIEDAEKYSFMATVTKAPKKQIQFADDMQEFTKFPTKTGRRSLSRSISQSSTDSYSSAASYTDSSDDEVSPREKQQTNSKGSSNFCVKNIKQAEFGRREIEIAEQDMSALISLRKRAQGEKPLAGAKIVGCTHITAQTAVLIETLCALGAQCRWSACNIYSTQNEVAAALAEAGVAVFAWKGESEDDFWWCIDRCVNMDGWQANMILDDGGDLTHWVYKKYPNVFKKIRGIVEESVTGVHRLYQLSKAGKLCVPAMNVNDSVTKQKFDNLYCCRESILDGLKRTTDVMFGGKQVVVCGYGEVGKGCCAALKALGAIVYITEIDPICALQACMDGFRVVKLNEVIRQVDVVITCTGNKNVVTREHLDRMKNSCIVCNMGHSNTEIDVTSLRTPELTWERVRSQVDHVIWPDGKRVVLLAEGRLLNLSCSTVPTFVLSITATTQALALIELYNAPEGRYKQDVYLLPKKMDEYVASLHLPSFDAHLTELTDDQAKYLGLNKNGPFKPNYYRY
UniProt Q9NX46: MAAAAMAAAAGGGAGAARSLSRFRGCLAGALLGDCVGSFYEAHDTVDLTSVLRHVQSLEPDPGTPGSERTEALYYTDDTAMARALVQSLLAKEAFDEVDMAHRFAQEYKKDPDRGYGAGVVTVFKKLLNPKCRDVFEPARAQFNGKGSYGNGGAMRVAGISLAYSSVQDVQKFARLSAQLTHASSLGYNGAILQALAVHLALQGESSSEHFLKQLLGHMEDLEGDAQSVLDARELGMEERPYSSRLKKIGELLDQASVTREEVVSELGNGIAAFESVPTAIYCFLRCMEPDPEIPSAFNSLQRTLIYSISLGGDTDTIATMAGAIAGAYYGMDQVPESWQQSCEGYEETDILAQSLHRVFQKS
UniProt P52895: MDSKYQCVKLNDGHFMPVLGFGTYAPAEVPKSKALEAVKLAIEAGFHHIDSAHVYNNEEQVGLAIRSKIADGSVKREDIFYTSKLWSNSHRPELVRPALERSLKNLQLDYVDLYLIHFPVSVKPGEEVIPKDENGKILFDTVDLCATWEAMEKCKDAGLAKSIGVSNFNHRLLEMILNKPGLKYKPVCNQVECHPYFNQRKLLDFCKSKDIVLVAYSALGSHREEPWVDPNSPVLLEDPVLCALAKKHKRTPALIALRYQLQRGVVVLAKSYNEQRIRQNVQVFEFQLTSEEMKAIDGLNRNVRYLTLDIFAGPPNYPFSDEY
UniProt P54886: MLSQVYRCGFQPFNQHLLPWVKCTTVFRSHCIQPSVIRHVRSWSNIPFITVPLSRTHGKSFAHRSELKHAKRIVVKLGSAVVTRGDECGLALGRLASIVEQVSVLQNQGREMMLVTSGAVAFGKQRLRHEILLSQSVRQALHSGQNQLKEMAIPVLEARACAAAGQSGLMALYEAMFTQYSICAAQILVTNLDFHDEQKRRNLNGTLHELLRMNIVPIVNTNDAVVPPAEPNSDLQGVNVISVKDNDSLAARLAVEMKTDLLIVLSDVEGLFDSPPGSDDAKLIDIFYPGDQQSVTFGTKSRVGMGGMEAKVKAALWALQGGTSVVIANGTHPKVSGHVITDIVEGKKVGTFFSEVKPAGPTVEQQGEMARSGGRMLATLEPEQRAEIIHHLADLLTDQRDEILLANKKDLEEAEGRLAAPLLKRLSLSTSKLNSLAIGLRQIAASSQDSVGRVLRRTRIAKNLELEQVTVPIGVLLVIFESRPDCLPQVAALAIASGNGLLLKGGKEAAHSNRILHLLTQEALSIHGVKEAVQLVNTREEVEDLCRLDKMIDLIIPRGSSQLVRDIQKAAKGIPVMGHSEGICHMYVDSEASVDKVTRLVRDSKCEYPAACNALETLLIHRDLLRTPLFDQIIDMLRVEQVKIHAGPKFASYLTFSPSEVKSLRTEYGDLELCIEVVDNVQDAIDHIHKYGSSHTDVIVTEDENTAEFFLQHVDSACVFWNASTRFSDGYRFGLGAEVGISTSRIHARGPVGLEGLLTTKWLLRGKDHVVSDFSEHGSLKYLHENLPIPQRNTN
UniProt Q6NS38: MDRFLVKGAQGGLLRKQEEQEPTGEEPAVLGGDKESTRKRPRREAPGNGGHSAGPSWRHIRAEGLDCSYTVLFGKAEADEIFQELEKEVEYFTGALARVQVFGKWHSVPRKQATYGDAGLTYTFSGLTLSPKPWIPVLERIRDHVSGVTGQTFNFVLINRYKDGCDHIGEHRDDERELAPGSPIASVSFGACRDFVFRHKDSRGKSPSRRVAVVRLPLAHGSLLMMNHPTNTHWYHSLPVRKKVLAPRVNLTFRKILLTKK
UniProt O00170: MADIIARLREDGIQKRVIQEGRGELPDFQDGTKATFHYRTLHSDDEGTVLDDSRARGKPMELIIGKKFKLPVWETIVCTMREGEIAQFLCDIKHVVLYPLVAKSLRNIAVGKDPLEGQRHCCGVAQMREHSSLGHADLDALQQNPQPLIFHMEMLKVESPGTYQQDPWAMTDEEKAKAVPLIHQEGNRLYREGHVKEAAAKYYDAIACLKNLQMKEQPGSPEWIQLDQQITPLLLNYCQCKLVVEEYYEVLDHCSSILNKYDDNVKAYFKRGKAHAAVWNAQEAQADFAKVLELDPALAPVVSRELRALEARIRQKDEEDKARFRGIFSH
UniProt P55263: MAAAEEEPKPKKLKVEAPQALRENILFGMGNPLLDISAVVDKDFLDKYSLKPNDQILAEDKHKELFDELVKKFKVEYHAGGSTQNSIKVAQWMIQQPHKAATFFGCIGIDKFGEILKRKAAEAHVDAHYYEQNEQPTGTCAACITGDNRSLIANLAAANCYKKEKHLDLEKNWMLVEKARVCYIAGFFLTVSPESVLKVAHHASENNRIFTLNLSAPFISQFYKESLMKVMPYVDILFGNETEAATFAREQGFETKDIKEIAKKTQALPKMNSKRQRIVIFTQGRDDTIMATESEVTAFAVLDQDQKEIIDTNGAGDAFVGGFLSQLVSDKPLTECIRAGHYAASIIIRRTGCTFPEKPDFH
UniProt O00116: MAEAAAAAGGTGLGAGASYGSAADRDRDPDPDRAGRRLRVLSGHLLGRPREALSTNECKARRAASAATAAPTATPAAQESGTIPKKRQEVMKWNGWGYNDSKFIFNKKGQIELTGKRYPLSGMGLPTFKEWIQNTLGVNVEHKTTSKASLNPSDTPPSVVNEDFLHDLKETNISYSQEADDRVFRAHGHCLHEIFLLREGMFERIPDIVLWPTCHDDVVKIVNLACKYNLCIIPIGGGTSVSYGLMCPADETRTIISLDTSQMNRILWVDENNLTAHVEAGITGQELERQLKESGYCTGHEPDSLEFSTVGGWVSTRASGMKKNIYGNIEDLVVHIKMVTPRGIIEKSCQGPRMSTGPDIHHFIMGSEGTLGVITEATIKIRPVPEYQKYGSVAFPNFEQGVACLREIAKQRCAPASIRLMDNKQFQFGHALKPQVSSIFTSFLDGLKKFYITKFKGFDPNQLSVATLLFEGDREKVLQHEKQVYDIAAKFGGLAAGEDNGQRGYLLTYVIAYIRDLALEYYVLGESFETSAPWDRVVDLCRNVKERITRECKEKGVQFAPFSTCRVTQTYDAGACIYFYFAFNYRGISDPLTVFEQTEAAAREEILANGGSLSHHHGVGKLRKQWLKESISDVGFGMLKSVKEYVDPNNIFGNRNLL
UniProt Q9UEY8: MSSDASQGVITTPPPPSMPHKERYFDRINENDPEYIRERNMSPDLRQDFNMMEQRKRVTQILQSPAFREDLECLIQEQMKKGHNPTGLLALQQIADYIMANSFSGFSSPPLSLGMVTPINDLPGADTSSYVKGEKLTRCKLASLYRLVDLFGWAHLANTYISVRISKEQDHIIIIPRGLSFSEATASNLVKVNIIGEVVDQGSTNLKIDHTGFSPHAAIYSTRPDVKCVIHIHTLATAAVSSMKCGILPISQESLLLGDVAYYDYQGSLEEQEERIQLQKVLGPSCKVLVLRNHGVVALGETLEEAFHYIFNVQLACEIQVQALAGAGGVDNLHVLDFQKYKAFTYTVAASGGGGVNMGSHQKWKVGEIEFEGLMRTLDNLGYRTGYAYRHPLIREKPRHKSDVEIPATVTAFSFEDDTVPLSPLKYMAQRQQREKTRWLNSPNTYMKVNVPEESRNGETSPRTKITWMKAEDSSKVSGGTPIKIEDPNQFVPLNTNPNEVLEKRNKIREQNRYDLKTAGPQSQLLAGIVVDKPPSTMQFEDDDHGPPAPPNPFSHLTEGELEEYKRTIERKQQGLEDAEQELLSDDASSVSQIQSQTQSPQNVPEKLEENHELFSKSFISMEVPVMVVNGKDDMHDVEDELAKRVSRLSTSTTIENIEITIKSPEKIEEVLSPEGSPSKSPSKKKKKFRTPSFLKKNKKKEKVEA
UniProt P35611: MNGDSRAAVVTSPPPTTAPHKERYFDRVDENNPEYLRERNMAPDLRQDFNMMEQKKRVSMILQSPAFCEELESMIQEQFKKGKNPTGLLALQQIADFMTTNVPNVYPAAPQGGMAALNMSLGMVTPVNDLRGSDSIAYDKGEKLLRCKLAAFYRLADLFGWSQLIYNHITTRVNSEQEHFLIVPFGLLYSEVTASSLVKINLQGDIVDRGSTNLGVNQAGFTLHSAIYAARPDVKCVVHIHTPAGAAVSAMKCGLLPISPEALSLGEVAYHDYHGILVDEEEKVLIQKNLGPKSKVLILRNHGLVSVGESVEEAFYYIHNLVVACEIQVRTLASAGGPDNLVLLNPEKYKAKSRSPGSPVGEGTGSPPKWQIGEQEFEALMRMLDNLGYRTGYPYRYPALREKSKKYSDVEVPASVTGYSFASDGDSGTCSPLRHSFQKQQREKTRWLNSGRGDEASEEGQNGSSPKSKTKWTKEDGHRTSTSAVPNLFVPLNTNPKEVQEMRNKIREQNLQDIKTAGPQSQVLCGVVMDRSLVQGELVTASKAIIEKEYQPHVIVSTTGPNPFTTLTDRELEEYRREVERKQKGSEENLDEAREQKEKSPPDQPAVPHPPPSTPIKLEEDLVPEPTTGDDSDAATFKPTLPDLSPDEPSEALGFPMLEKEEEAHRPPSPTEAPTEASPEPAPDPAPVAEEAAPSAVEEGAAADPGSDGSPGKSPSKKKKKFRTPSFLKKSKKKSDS
UniProt P30837: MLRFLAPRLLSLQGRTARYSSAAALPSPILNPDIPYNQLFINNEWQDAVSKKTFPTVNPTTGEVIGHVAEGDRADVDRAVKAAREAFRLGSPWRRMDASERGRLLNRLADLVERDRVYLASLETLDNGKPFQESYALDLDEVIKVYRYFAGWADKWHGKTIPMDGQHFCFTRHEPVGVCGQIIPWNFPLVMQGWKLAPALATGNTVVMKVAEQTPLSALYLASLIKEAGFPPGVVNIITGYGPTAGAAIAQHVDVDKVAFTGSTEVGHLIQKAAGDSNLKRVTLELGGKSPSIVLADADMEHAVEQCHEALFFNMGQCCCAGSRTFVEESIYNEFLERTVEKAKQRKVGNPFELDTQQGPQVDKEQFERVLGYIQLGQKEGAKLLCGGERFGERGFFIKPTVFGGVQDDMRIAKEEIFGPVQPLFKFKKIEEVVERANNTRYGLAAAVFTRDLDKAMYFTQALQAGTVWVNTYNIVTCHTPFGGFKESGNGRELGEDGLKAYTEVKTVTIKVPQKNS
UniProt Q92685: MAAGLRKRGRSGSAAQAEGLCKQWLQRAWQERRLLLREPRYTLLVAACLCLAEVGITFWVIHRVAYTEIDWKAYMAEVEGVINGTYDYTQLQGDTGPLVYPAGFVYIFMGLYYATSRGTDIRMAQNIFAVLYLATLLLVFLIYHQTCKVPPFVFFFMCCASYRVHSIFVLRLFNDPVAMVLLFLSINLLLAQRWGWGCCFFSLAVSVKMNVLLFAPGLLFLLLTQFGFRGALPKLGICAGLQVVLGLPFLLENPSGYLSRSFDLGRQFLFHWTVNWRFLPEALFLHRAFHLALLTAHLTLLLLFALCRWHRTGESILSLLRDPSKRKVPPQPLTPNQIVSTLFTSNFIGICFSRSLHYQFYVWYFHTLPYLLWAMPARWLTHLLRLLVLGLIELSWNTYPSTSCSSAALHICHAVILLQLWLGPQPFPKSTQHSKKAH

Legend:
Test in all cases: log2 fold change, soluble protein after heating vs DMSO (PISA); higher = thermal stabilisation; K562 cells, 10 uM, 30 min; active = over 0.2 and 3.5 SD of the protein, either way, in both replicates (recomputed)
[1] = compound: CC[C@@H]1C(=O)N(C)c2cnc(Nc3ccc(C(=O)NC4CCN(C)CC4)cc3OC)nc2N1C1CCCC1
In short: (§1)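 K562 cells (2×10^6 cells/mL) were treated with 10 μM compound for 30 min, and aliquots were heated for 3 min over 48°C-58°C. Pooled aliquots were extracted in PBS with 0.5% NP-40 at 4°C, and the supernatant after 21,000xg for 90 min was measured by TMTpro 16plex LC-MS/MS with channel sums equalised. Reported thermal stability, relative to control samples and from duplicates, is a log2 fold change.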

volasertib = compound: CC[C@@H]1C(=O)N(C)c2cnc(Nc3ccc(C(=O)N[C@H]4CC[C@H](N5CCN(CC6CC6)CC5)CC4)cc3OC)nc2N1C(C)C [volasertib]
In short: as §1

[2] = compound: CC[C@H](C)N1C=C(C2=C(C=C(C=C21)C3=CN=C(C=C3)N4CCNCC4)C(=O)NCC5=C(C=C(NC5=O)C)C)C
In short: as §1

epoxomicin = compound: CC[C@H](C)[C@@H](C(=O)N[C@@H]([C@@H](C)O)C(=O)N[C@@H](CC(C)C)C(=O)[C@]1(CO1)C)NC(=O)[C@H]([C@@H](C)CC)N(C)C(=O)C [epoxomicin]
In short: as §1

[3] = compound: CCn1c(C(=O)N(C2CC2)C2CC2)cc2c3c(ncn3C)c(Nc3cc(C)n(C)n3)nc21
In short: as §1

[4] = compound: CCn1cc(-c2ccnc3[nH]c(-c4cccc(CN(C)C)c4)cc23)c(-c2ccc(NC(=O)N(C)C)cc2)n1
In short: as §1

[5] = compound: CN(C)CC(=O)Nc1ccc2[nH]c(=O)c3ccccc3c2c1
In short: as §1

rosiglitazone = compound: CN(CCOC1=CC=C(C=C1)C[C@H]2C(=O)NC(=O)S2)C3=CC=CC=N3 (racemic) [rosiglitazone]
In short: as §1

[6] = compound: CN1C2=C(C3=C1C(=O)N(N=C3)CC4=CC(=CC=C4)N)SC(=C2)S(=O)C
In short: as §1

[7] = compound: CN1CCC(CNc2ccc3ncc(-c4cccc(OC(F)(F)F)c4)n3n2)CC1
In short: as §1

Target	log2 fold change [1]	log2 fold change (volasertib)	log2 fold change [2]	log2 fold change (epoxomicin)	log2 fold change [3]	log2 fold change [4]	log2 fold change [5]	log2 fold change (rosiglitazone)	log2 fold change [6]	log2 fold change [7]
AMPD2 (UniProt Q01433)	inactive: 0.032	inactive: -0.014	inactive: -0.022	inactive: 0.001	inactive: -0.022	inactive: -0.042	inactive: 0.014	inactive: 0.006	inactive: -0.05	inactive: -0.067
AHNAK (UniProt Q09666)	inactive: 0.096	inactive: -0.006	inactive: -0.039	inactive: -0.027	inactive: 0.029	inactive: 0.008	inactive: -0.025	inactive: -0.001	inactive: 0.005	inactive: 0.084
AKIRIN2 (UniProt Q53H80)	inactive: 0.008	inactive: 0.175	inactive: 0.023	inactive: 0.074	inactive: -0.048	inactive: 0.035	inactive: -0.053	–	inactive: -0.072	inactive: -0.085
ALG9 isoform 3 (UniProt Q9H6U8)	inactive: -0.019	inactive: -0.078	inactive: 0.002	inactive: -0.014	inactive: -0.034	inactive: -0.024	inactive: -0.025	inactive: 0.059	inactive: 0.009	inactive: -0.022
ALKBH3 (UniProt Q96Q83)	inactive: -0.053	inactive: 0.028	inactive: -0.051	inactive: 0.069	inactive: 0.02	inactive: 0.017	inactive: -0.145	inactive: 0	inactive: -0.069	inactive: -0.072
AGPAT3 isoform 3 (UniProt Q9NRZ7)	inactive: -0.095	active: -0.211	inactive: 0.017	inactive: 0.02	–	inactive: -0.082	inactive: 0.012	–	inactive: -0.069	inactive: 0.001
ALG5 (UniProt Q9Y673)	inactive: -0.028	inactive: -0.026	inactive: 0.017	inactive: 0.043	–	inactive: -0.069	inactive: 0.035	–	inactive: -0.088	inactive: 0.017
AHCYL1 (UniProt O43865)	inactive: 0.021	inactive: 0.036	inactive: -0.099	inactive: -0.007	–	inactive: -0.097	inactive: 0.018	–	inactive: -0.115	inactive: -0.063
ADPRHL2 (UniProt Q9NX46)	inactive: -0.027	inactive: 0.071	inactive: -0.028	inactive: 0.145	–	inactive: -0.093	inactive: 0.116	–	inactive: -0.042	inactive: 0.133
ALKBH5 (UniProt Q6P6C2)	inactive: 0.08	inactive: 0.109	inactive: 0.01	inactive: -0.033	–	inactive: -0.058	inactive: -0.058	–	inactive: -0.011	inactive: 0.041
AKR1C2 (UniProt P52895)	inactive: 0.27	inactive: 0.087	inactive: 0.03	inactive: -0.139	–	inactive: 0.002	inactive: -0.006	–	active: 0.568	inactive: -0.016
AGRN (UniProt O00468)	inactive: 0.042	inactive: -0.001	inactive: 0.005	inactive: 0.065	–	inactive: 0.053	inactive: 0.016	–	inactive: 0.062	inactive: -0.02
ALDH18A1 (UniProt P54886)	inactive: -0.418	active: -0.713	inactive: 0.092	inactive: 0.1	–	inactive: -0.208	inactive: 0.041	–	inactive: 0.054	inactive: -0.054
ALKBH2 (UniProt Q6NS38)	inactive: -0.002	inactive: -0.004	inactive: -0.024	inactive: -0.042	–	inactive: -0.034	inactive: -0.044	inactive: 0.121	inactive: 0.117	inactive: 0.105
AKAP8L (UniProt Q9ULX6)	inactive: -0.14	active: -0.394	inactive: 0.059	inactive: 0.072	–	inactive: -0.039	inactive: 0.043	–	inactive: 0.171	inactive: -0.25
ALDH9A1 (UniProt P49189)	inactive: -0.035	inactive: 0.009	inactive: 0.111	inactive: -0.011	–	inactive: -0.005	inactive: 0	–	inactive: -0.015	inactive: 0.016

Target	log2 fold change [1]	log2 fold change (volasertib)	log2 fold change [2]	log2 fold change (epoxomicin)	log2 fold change [3]	log2 fold change [4]	log2 fold change [5]	log2 fold change (rosiglitazone)	log2 fold change [6]	log2 fold change [7]
AIP (UniProt O00170)	inactive: -0.115	active: -0.372	inactive: 0.054	inactive: 0.172	–	inactive: -0.051	inactive: 0.057	–	inactive: -0.085	inactive: -0.047
ALDOC (UniProt J3QKP5)	inactive: 0.066	inactive: 0.237	inactive: -0.088	inactive: -0.106	–	inactive: -0.098	inactive: -0.333	inactive: -0.192	inactive: 0.198	inactive: -0.548
ADK (UniProt P55263)	inactive: 0.338	inactive: 0.359	inactive: -0.095	inactive: -0.011	–	inactive: -0.026	inactive: -0.018	–	inactive: -0.085	inactive: 0.184
AGO1 (UniProt Q9UL18)	inactive: 0.215	inactive: 0.124	inactive: -0.1	inactive: -0.148	–	inactive: 0.032	inactive: 0.098	–	inactive: 0.14	inactive: -0.151
AHSA1 (UniProt O95433)	inactive: -0.085	active: -0.228	inactive: 0.038	inactive: 0.023	–	inactive: -0.052	inactive: 0	–	inactive: -0.06	inactive: 0.038
AGPS (UniProt O00116)	inactive: -0.005	inactive: -0.021	inactive: 0.002	inactive: 0.031	–	inactive: -0.102	inactive: 0.039	–	inactive: -0.09	active: -0.212
ALDH6A1 (UniProt Q02252)	inactive: 0.06	inactive: -0.011	inactive: -0.059	inactive: 0	–	inactive: -0.06	inactive: -0.033	–	inactive: -0.068	inactive: -0.004
ADD3 (UniProt Q9UEY8)	inactive: 0.098	inactive: 0.056	inactive: -0.024	inactive: 0.014	–	inactive: 0.054	inactive: -0.03	–	inactive: -0.056	inactive: -0.023
AFDN isoform 5 (UniProt P55196)	inactive: -0.072	active: -0.254	inactive: 0.05	inactive: 0.047	–	inactive: -0.099	inactive: 0.008	–	inactive: -0.003	active: -0.353
ADD1 isoform 3 (UniProt P35611)	inactive: 0.077	inactive: 0.015	inactive: -0.015	inactive: -0.012	–	inactive: 0.011	inactive: -0.039	–	inactive: -0.055	inactive: 0.053
ALG11 (UniProt Q2TAA5)	inactive: -0.034	inactive: -0.17	inactive: 0.126	inactive: 0.038	–	inactive: 0.006	inactive: 0.018	–	inactive: -0.109	inactive: 0.042
ALDH1B1 (UniProt P30837)	inactive: -0.036	inactive: 0.05	inactive: -0.005	inactive: 0.032	–	inactive: -0.113	inactive: 0.001	–	inactive: -0.095	inactive: 0.058
AGPAT1 (UniProt Q99943)	inactive: -0.032	active: -0.243	inactive: 0.015	inactive: -0.056	–	inactive: -0.006	inactive: 0.032	–	inactive: -0.102	active: 0.315
ALDH9A1 isoform 3 (UniProt P49189)	inactive: 0	inactive: -0.003	inactive: -0.048	inactive: 0.011	–	inactive: -0.025	inactive: -0.01	–	inactive: -0.065	inactive: -0.027
AKAP8 (UniProt O43823)	inactive: 0.069	active: -0.268	inactive: -0.017	inactive: 0.003	–	inactive: 0.026	inactive: -0.03	–	inactive: 0	inactive: -0.131
ALG3 (UniProt Q92685)	inactive: 0.005	inactive: -0.164	inactive: 0.02	inactive: 0.039	–	inactive: -0.037	inactive: -0.002	–	inactive: -0.028	inactive: 0.033
